Source: publication PMC3691262
These are yes or no findings as the source states them, for the method shown. Binding seen in cells or lysates may run through a third protein. Some entries that bind do so weakly or less than the wild type. Where a sequence is shown, tags or fusion partners need not be part of it.

Target: T1, FLAG-tagged murine Dact1 (Dapper Antagonist of Catenin-1) (mouse) (UniProt Q8R4A3)
T1 sequence: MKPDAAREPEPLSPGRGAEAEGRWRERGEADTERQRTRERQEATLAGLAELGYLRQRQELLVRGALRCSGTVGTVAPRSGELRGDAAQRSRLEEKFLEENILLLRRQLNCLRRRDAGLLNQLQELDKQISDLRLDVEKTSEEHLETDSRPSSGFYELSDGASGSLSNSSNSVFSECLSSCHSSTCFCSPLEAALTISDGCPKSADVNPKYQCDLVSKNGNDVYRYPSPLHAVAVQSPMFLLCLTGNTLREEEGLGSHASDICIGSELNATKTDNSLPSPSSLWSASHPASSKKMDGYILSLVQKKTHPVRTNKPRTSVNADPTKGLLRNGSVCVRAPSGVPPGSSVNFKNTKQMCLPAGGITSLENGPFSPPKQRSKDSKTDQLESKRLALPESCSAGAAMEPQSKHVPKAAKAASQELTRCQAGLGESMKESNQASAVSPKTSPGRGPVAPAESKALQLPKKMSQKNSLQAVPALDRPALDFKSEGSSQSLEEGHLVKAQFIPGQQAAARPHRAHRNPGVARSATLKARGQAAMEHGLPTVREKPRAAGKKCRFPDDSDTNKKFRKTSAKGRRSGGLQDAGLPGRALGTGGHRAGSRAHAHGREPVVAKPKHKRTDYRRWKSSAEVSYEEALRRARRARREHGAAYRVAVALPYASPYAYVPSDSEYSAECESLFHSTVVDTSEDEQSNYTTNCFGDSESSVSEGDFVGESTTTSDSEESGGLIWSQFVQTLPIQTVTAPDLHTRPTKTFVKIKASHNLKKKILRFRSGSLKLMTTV
Test: co-IP; FLAG-Dact1 and HA-DISC1 recombinantly expressed in HEK293T cells; complexes immunoprecipitated with anti-FLAG agarose beads, associated proteins detected by immunoblot with anti-HA antibody

binding: binds
B1: HA-tagged murine DISC1 (Disrupted in Schizophrenia-1) (protein, UniProt Q811T9 1-852)
chain: MQGGGPRGAPIHSPSHGADSGHGLPPAVAPQRRRLTRRPGYMRSTAGSGIGFLSPAVGMPHPSSAGLTGQQSQHSQSKAGQCGLDPGSHCQASLVGKPFLKSSLVPAVASEGHLHPAQRSMRKRPVHFAVHSKNDSRQSERLTGSFKPGDSGFWQELLSSDSFKSLAPSLDAPWNKGSRGLKTVKPLASPALNGPADIASLPGFQDTFTSSFSFIQLSLGAAGERGEAEGCLPSREAEPLHQRPQEMAAEASSSDRPHGDPRHLWTFSLHAAPGLADLAQVTRSSSRQSECGTVSSSSSDTGFSSQDASSAGGRGDQGGGWADAHGWHTLLREWEPMLQDYLLSNRRQLEVTSLILKLQKCQEKVVEDGDYDTAETLRQRLEELEQEKGRLSWALPSQQPALRSFLGYLAAQIQVALHGATQRAGSDDPEAPLEGQLRTTAQDSLPASITRRDWLIREKQRLQKEIEALQARMSALEAKEKRLSQELEEQEVLLRWPGCDLMALVAQMSPGQLQEVSKALGETLTSANQAPFQVEPPETLRSLRERTKSLNLAVRELTAQVCSGEKLCSSLRRRLSDLDTRLPALLEAKMLALSGSCFSTAKELTEEIWALSSEREGLEMFLGRLLALSSRNSRRLGIVKEDHLRCRQDLALQDAAHKTRMKANTVKCMEVLEGQLSSCRCPLLGRVWKADLETCQLLMQSLQLQEAGSSPHAEDEEQVHSTGEAAQTAALAVPRTPHPEEEKSPLQVLQEWDTHSALSPHCAAGPWKEDSHIVSAEVGEKCEAIGVKLLHLEDQLLGAMYSHDEALFQSLQGELQTVKETLQAMILQLQPTKEAGEASASYPTAGAQETEA
